Like-named read-outs stand apart in the source and are kept apart here.
Tests used:
[1] = biological target: T1, bovine serum albumin (BSA) (Bos taurus, UniProt P02769); conditions: BSA–GLICL complex in presence of DRUG; for ΔH / ΔS: 298 303 310 K
Protocol: (§1) Bovine serum albumin (≥96%) was used to prepare 1.2 mM stock solution in PBS (pH 7.4). […] The concentration of BSA was controlled by the spectrophotometric method at 280 nm (with a molar coefficient of 43,824 cm^−1 M^−1). […] Simultaneously, a control sample containing BSA solution without any ligands was prepared. Measurements were performed in triplicate. All reagents were received from Sigma-Aldrich (St. Luis, MO, USA).
The thermodynamic analysis of the interaction between albumin and GLICL was performed on measurements at three temperatures (298, 303, 310 K) based on the van’t Hoff Equations (4)–(6):(4) ΔG=−R·T·lnKa (5) ΔG=ΔH−T·ΔS (6) lnKa=−ΔH/R·T+ΔS/R where ΔG is the free energy change, ΔH is the enthalpy change, ΔS is the entropy change, R is the universal gas constant, and T is the temperature.

By UniProt entry, the sequences of proteins in these tests, tags left out. Residues count along the entry.
UniProt P02769, 25-607: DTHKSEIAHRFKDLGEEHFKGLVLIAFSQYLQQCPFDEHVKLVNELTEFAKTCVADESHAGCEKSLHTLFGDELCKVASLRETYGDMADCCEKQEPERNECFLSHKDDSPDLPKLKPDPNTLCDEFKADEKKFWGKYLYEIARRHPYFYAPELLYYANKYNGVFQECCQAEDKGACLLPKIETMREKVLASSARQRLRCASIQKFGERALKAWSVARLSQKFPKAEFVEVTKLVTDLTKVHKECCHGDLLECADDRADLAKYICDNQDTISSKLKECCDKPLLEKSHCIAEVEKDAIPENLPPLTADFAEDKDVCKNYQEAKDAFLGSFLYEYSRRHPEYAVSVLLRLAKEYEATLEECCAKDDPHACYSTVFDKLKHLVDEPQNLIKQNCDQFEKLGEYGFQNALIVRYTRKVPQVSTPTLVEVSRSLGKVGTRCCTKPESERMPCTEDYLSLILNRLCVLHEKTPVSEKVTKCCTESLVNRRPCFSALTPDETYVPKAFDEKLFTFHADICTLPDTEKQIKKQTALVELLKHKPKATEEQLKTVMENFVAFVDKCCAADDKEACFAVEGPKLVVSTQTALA

[2] = biological target: T1, bovine serum albumin (BSA); conditions: for Decreased α-Helix (%): vs BSA alone
Protocol: as §1
The circular dichroism spectra data were recorded using JASCO J-1500 spectropolarimeter (Tokyo, Japan) in the range of 205–250 nm, with a scanning speed of 200 nm/min and with 0.1 step resolution using a quartz cuvette with a length path of 0.1 cm. The measurements were conducted for binary (BSA–DRUG) and ternary (BSA–DRUG–GLICL) models to provide information about the influence of ligand binding on the protein structure. The baseline was corrected using a phosphate buffer, pH = 7.4.
Mean residue ellipticity (MRE) was calculated according to the following Equation (7) and expressed in deg cm^2 dmol^−1:(7) MRE=Θobs/cp·n·l·10 where Θobs is the observed CD (in mdegree), Cp is the molar concentration of BSA, n is the number of amino acid residues (583 for BSA), and l is the path length of the cuvette (0.1 cm).
The α-helical contents of free and modified BSA were calculated from MRE values at 208 nm with Equation (8):(8) α-helix (%)=MRE208−4000/33,000−4000 ·100 where MRE208 is the observed MRE value at 208 nm, 4000 is the MRE of the β-form and random coil conformation cross at 208 nm, and 33,000 is the MRE value of the pure α-helix of BSA at 208 nm.

plasma protein = conditions: cited from earlier work
[3] = biological target: T1, bovine serum albumin (BSA); conditions: for n, number of binding sites (bound gliclazide molecules) / Stern–Volmer quenching constant KSV: BSA–DRUG–GLICL; for Stern–Volmer quenching constant KSV: GLICL as quencher 0–14 µM, DRUG 8 µM (DRUG:BSA 4:1), λex 280 nm
Protocol: as §1
Fluorescence intensities of ternary models (BSA–DRUG–GLICL) were recorded using a Jasco FP-8200 spectrofluorometer with Peltier-thermo Cell Holder ETC-814 (Tokyo, Japan) at excitation wavelength of 280 nm, equipped with 1.0 cm quartz cells. The slit widths were set at 5 nm. The measurements were conducted at two different temperatures, 298 and 310 K. The fluorescence spectra of the drugs alone were also recorded. Each spectrum background was corrected by subtracting the spectrum of the phosphate buffer as a blank sample.
According to the assumption that fluorophores in a protein molecule may differ in accessibility, modified Stern–Volmer Equation (2) was used for the construction of plots and to calculate quenching constants:(2) F0/F0−F=1/fa·KSV·Q+1/fa where F0 and F are the fluorescence intensities in the absence and presence of gliclazide (GLICL), respectively; fa is the fraction of the initial fluorescence accessible to the quencher; Ksv is the Stern–Volmer quenching constant; and Q is the concentration of the quencher (GLICL).
The binding parameters (binding constant and number of binding sites) were obtained from double-log modified Stern–Volmer Equation (3):(3) logF0−F/F=logKa+n·logQ where F0 and F are the fluorescence intensities in the absence and presence of the quencher (gliclazide), respectively; Ka is the binding constant of the complex BSA–DRUG–GLICL, expressed as M^−1; n is the number of bound gliclazide molecules; and Q is the concentration of the quencher (GLICL).

[4] = binary BSA–DRUG, molar ratio 1:4, 310 K
[5] = ternary BSA–DRUG–GLICL, BSA:Ligand 1:4, BSA:GLICL 1:7, 310 K

Row | SMILES | ΔH [1] [kcal/mol] | ΔS [1] [J/mol K] | ΔG ([1]; 298 K) [kcal/mol] | ΔG ([1]; 303 K) [kcal/mol] | α-Helix Content (%) ([2]; binary BSA–DRUG, molar ratio 1:4, 310 K (BSA alone 68.7)) | Decreased α-Helix (%) [2, 4] [%] | α-Helix Content (%) ([2]; ternary BSA–DRUG–GLICL, BSA:Ligand 1:4, BSA:GLICL 1:7, 310 K (BSA alone 68.7)) | Decreased α-Helix (%) [2, 5] [%] | Binding to serum albumin (plasma protein) | n, number of binding sites (bound gliclazide molecules) ([3]; 298 K) | n, number of binding sites (bound gliclazide molecules) ([3]; 310 K) | Stern–Volmer quenching constant KSV ([3]; 298 K) | Stern–Volmer quenching constant KSV ([3]; 310 K) | Mechanism of quenching of BSA fluorescence by GLICL in presence of DRUG ([3]; from temperature dependence of KSV, 298 vs 310 K) | ΔG ([1]; 310 K) [kcal/mol]
1 | NS(=O)(=O)c1cc(C(=O)O)c(NCc2ccco2)cc1Cl [FUR, furosemide] | 90.825 | 1310.00 | -2.481 | -4.046 | 67.3 | 1.3 | 64.8 | 3.9 | over 95% | – | – | – | – | – | –
2 | CC(C)NCC(O)COc1ccc(CC(N)=O)cc1 (stereo not drawn) [ATN, atenolol] | 6.2 | 159.06 | -5.129 | -5.318 | – | 0.5 | – | 2.2 | – | 0.96 ± 0.01 | 0.98 ± 0.01 | 1.32 ± 0.13 10^4 M^−1 | 0.90 ± 0.10 10^4 M^−1 | static mechanism | -5.586

Source: paper PMC8745505, “In Vitro Investigation of Binding Interactions between Albumin–Gliclazide Model and Typical Hypotensive Drugs” (International Journal of Molecular Sciences, 2021)
